Laboratory results from the supplement of paper PMC10338343.
± gives the standard deviation. The list shows a part of the results, in another mix than the full data. Many of these values have a large error.

system: EfPiwi piRISC loaded with piRNA #1 (26 nt); assay: pre-steady-state target cleavage rate (min^-1); guide: piRNA #1 5'p-UGAGGUAGUAGGUUGUAUAGUAUCCA; MIWI and MILI are mouse PIWI proteins and EfPiwi is from a freshwater sponge; tags in brackets are library labels; higher = faster piRNA-guided slicing of the target; settings: auxiliary factor: 500 nM Ephydatia muelleri Gtsf1
In short: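 Sequencing of uncleaved targets, normalised to depth and to weakly complementary targets, was the readout of this Cleave-'n-Seq assay. A transcribed, DNA-blocked target RNA library (0.1 nM) was mixed with 1 nM active affinity-purified piRISC carrying one synthetic guide, with or without 500 nM GTSF1 partner protein, in HEPES–potassium acetate buffer at 33 °C for 0–8 or 0–960 min. Three trials were pooled, k3 was capped at 0.0001 min^-1, and a burst-and-steady-state fit gave the pre-steady-state cleavage rate.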

Sequence | pre-steady-state target cleavage rate
GGAGACCUAUGAUAUGUACCUACUAGGUCA | 0.000465 ± 0.0095
GGAGAGGAUACUAUACAACGUACAACCUCA | 0.00357 ± 0.0017
GGAGACCUUACUAUACAACCUAAUACCUCA | 0.00281 ± 0.0029
GGAGACCUAUCUAUACAACCUCCUACCUCA | 0.00509 ± 0.0028
GGAGACCUAUCUAUAACAACCUACUACCUCA | 0.00453 ± 0.0037
GGAGACCUAUGUAUACAACCUACUAGCCUCA | 0.00109 ± 0.0083
GGAGACGAUACUAUAGAACCUACUACCUCA | 0.00433 ± 0.0017
GGAGACCUAACUAUACAACCUACUACCUCU [g2:g21:cont:t1U] | 0.915 ± 0.29
GGAGUGGAUACUUUACUACCUACUACCUCA | 0.00437 ± 0.0036
GGAGACCUUUCUAUACAACCUACUACGUCA | 0.00332 ± 0.0036
GGAGACCUAACUAUACUACCUAGUACCUCA | 0.000614 ± 0.0045
GGAGACCUAACUAUACAACCUAGCUACCUCA | 0.00041 ± 0.015
GGAGACCUAACUAUACAACCUACCUACCUCA | 0.00259 ± 0.0049
GGAGACCUAUGUAUACAACCUACUAGGUCA | 0.00127 ± 0.0057
GGAGAGGUUACUAUACAACGUACUACCUCA | 0.00457 ± 0.0015
GGAGACCUUACUAUACAACGUACUACCUCA | 0.00318 ± 0.0019

2 neighbouring records out of the list so far:
Sequence | pre-steady-state target cleavage rate
GGAGUGGAUACUUUACUACCUACUACCUCA | 0.00437 ± 0.0036
GGAGACCUUUCUAUACAACCUACUACGUCA | 0.00332 ± 0.0036
